Some of the results follow. Shown are side measurements of this screen, not its main read-out; they come without a call. Most of these compounds were active or inconclusive in the main read-out, so they are no random draw. Potencies come from curve fits of mixed quality, noted in brackets.
Assay: qHTS Assay to Find Inhibitors of Chronic Active B-Cell Receptor Signaling
Settings: ABC-DLBCL IkBa-CBG/CBR reporter, luminescence ratio (green luciferase fused to IkBa over red control in TMD8 lymphoma cells), 4 h
Method in brief: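 TMD8 human ABC-DLBCL cells with doxycycline-inducible IκBα–green luciferase fusion and unfused red luciferase, in 0.5% FBS medium; compounds up to 46 uM, 4 h at 37C. Green/red luminescence ratio, filter-overlap corrected, fitted to concentration-response curves.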

[1] = measured here: CBR red luminescence, cell number
[2] = measured here: IkBa-CBG green luminescence

Compound	AC50 [1]	AC50 [2]
C[C@H]1C(=O)N(c2ccccc2)[C@@H]1c1ccccc1	0.231 µM [rising, full curve, poor fit]	–
COc1ccc(-c2cc(C(F)(F)F)nc(SCC(=O)N(C)Cc3cn(C)nc3C)n2)cc1OC	23.1 µM [rising, partial curve]	–
CSc1nc(-c2ccccc2)nc(N2CCN(C)CC2)c1C(C)=O	35.5 µM [falling, single point]	–
CC(=O)N[C@@H](Cc1c[nH]c2ccccc12)C(=O)OCC(=O)Nc1ccc(Cl)c(S(=O)(=O)N(C)C)c1	1.26 µM [rising, full curve]	–
c1ccc(-c2noc(CSc3nc4ccccc4o3)n2)cc1	7.94 µM [rising, partial curve]	–
Cn1c(=O)n(CCOc2ccc(Cl)cc2Cl)c2ccccc21	14.6 µM [rising, partial curve, poor fit]	–
Cc1ccc(Cl)cc1-n1ncc2c(NCCc3ccccc3)ncnc21	6.31 µM [falling, single point]	3.55 µM [rising, partial curve, poor fit]
Cc1cccc(CSc2cn(CC(=O)N3CCOCC3)c3ccccc23)c1	13 µM [falling, single point]	–
c1ccc(CSC2=NNC(c3ccccn3)S2)cc1 (configuration not stated)	4.47 µM [rising, full curve, poor fit]	–
CC(C)Cc1ccc(/C=C/C(=O)N2CCOCC2)cc1	3.55 µM [rising, full curve, poor fit]	–
COC(=O)CC1C(=O)NCCN1C(=O)CSc1nnnn1-c1ccc(Cl)cc1 (configuration not stated)	35.5 µM [rising, single point]	–
c1ccc2[nH]c(-c3nc4ccccc4[nH]3)nc2c1	5.17 µM [falling, full curve, poor fit]	–
Nc1nc(-c2ccc3ccccc3c2)cs1	0.891 µM [rising, full curve, poor fit]	–
CCOc1ccc2nc(NC(NC(C)=O)(C(=O)OC)C(F)(F)F)sc2c1 (configuration not stated)	10 µM [rising, partial curve]	–
CCOC(=O)c1c(-c2ccccc2)csc1NC(=O)CCN1CCOCC1	29.1 µM [falling, single point]	–
CN1CCN(c2ccc(NC(=O)c3cccc(OCc4ccccc4)c3)cc2)CC1	29.1 µM [falling, single point]	–
CC1=NN(C(N)=S)C(=O)C1N=Nc1ccc(F)cc1 (configuration not stated)	–	0.794 µM [falling, full curve]
C=C(C)C(=O)OCCCCCCOc1ccc(C(=O)O)cc1	29.1 µM [falling, single point]	–
Cc1nn(Cc2ccccc2)c(Cl)c1C(=O)NCCc1ccccc1	11.6 µM [rising, partial curve]	–
Cc1c(C(=O)N/N=C/c2ccccc2)[nH]c2c([N+](=O)[O-])cccc12	0.447 µM [falling, partial curve, poor fit]	–
Nc1nc(N(Cc2ccccc2)Cc2ccccc2)nc(C(F)(F)F)n1	3.26 µM [rising, full curve, poor fit]	–

3 entries out of the list, ordered by molar mass, low to high:
Compound	AC50 [1]	AC50 [2]
c1ccc2[nH]c(-c3nc4ccccc4[nH]3)nc2c1	5.17 µM [falling, full curve, poor fit]	–
CSc1nc(-c2ccccc2)nc(N2CCN(C)CC2)c1C(C)=O	35.5 µM [falling, single point]	–
Cc1cccc(CSc2cn(CC(=O)N3CCOCC3)c3ccccc23)c1	13 µM [falling, single point]	–

The list continues.

Compound	AC50 [1]	AC50 [2]
Cc1cccnc1NC(=O)C(c1ccccc1)c1ccccc1	5.62 µM [rising, single point]	–
N#Cc1c(N)nc2c(c1-c1ccc3c(c1)OCO3)CCCCCC2	6.31 µM [falling, single point]	–
Cc1oc2cc(Br)c(O)c(Br)c2c1C(=O)c1ccccc1	35.5 µM [rising, single point]	–
O=C(NCc1cccnc1)C(=O)c1c[nH]c2ccccc12	14.1 µM [falling, partial curve]	–
CSc1nsc(SCC(=O)NC2CCCCC2)n1	20.6 µM [falling, single point]	–
N[C@@H](Cc1ccccc1)C(=O)N1CCC(C(=O)NCC(=O)Nc2ccc(F)cc2)CC1	11.2 µM [falling, single point]	–
O=C1C2ON(c3ccccc3)C(c3cccnc3)C2C(=O)N1Cc1ccccc1 (configuration not stated)	11.2 µM [falling, partial curve, poor fit]	–
CN1C[C@@H]2C[C@@H](C3=Cc4cc(Cl)ccc4OC3)N3CCC[C@@]23C1=O	5.62 µM [falling, full curve]	–
CC(C)(C)NCC(O)COc1cccc2c1C[C@H](O)[C@H](O)C2 (some centres not stated)	0.731 µM [falling, partial curve, poor fit]	–
CCOC(=O)C1=C(COC(=O)CCOc2ccc(OCC)cc2)NC(=O)NC1C (configuration not stated)	0.517 µM [rising, partial curve, poor fit]	–
O=C(O)C1C2CCC(O2)C1C(=O)Nc1cccc(F)c1 (configuration not stated)	35.5 µM [rising, partial curve, poor fit]	–
CCOC(=O)c1cc2c(ccn2C)n1CC(=O)Nc1ccc(F)cc1	35.5 µM [falling, single point]	–
C=CCn1c(Sc2nnc(C)s2)nc2c1c(=O)[nH]c(=O)n2C	4.47 µM [rising, partial curve, poor fit]	–
COC(=O)C1CCN(C(=O)COC(=O)c2n[nH]c3ccccc23)CC1	3.98 µM [falling, partial curve]	–
Cc1ccccc1-c1nc(S(=O)(=O)c2ccccc2)c(NCCCN2CCOCC2)o1	0.231 µM [rising, partial curve, poor fit]	–
O=C(Nc1ccc2c(c1)CCC2)Nc1ccccc1Cl	10 µM [falling, partial curve, poor fit]	–
O=C(N/N=C/c1ccco1)c1cc(-c2ccccc2)nc2ccccc12	14.1 µM [falling, partial curve, poor fit]	–
CCCCN(C(=O)CCC(=O)OCC(=O)NCc1ccccc1)c1c(N)n(CCC)c(=O)[nH]c1=O	0.146 µM [falling, full curve, poor fit]	–
CCc1cc(=O)oc2c3c(cc(OCC(=O)NCc4ccco4)c12)OC(C)(C)CC3	35.5 µM [falling, single point]	–
Cc1nc(C)c(C(=O)NCc2ccccc2Cl)o1	20 µM [falling, single point]	–
